Results as given in patent US20220323521A1, “Compositions and Uses for Engineered Therapeutic Microbes and Associated Receptors” (The Brigham and Women`s Hospital, Inc., priority 2019, published 2022).
Some results were stated once for a whole list of compounds, not compound by compound.

Test system: human P2Y2 receptor
Assay: Flow cytometry evaluation of response to ATP and UTP (pFUS1-mCherry mating pathway reporter in yeast strain BS016)
Assay type: cell-based
Settings: eATP versus eUTP
Method: Flow cytometry evaluation of response to ATP and UTP. Yeast strain BS016 transformed with a human P2Y2 gene in the pRS316 pTDH3 vector was grown in SC-URA liquid media overnight. The same strain transformed with a plasmid not containing a P2Y2 sequence (Vector) was used as a negative control. Cells were diluted to OD600 0.05 in 600 μL SC-URA containing ATP (0-25.6 mM; pH 7.0, Bio Basic) or UTP (0-3.2 mM; pH 7.0, Sigma-Aldrich) and incubated for 6 hours at 30° C. Cells were then treated with cycloheximide to a final concentration of 10 μg/mL. The mCherry signal of at least 10,000 cells was measured for each sample with a Miltenyi Biotec MACSQuant VYB. The mean mCherry fluorescence was determined using FlowJo. […] After subtracting the mCherry fluorescence signal of the Vector control, fluorescence values were normalized to the wild-type P2Y2 control used in the same experiment, to allow comparisons between experiments performed on different days.
Directed evolution of human P2Y2 receptor. […] 150 ng of template DNA and 30 cycles achieved the desired mutation rate of ˜3 mutations per P2Y2 gene, determined by sequencing 12 randomly selected plasmids (Table 2). […]
Maximum response values were normalized to the maximum mating pathway activation provided by the WT human P2Y2 receptor incubated with eATP. […] Linear range was the series of ligand concentrations for which a change in signal can be detected. […]

Substance: TM-4: human P2Y2 receptor mutant L162I Q165H
- maximum mating pathway response, fold higher for eATP than for eUTP: 1.4- to 2 fold
